The structures given here were assigned with low confidence; some may be wrong.
Key:
MCH-5 [1] = target: T1, MCH-5 (Homo sapiens, UniProt Q14790); experiment: Dissociation constant Ki and irreversible rate constant k3 for irreversible inhibitors (Mch5); assay type: biochemical; conditions: continuous assay 60 min, reaction initiated by adding enzyme to substrate-inhibitor mixture; for Ki: read-out: MCH-5 Ki
mICE [2] = target: T2, mICE (Mus musculus, UniProt P29452); experiment: Dissociation constant Ki and irreversible rate constant k3 for irreversible inhibitors (ICE); assay type: biochemical; conditions: continuous assay 60 min, reaction initiated by adding enzyme to substrate-inhibitor mixture; for Ki: read-out: mICE Ki
CPP32 [3] = target: T3, CPP32 (Homo sapiens, UniProt P42574); experiment: Dissociation constant Ki and irreversible rate constant k3 for irreversible inhibitors (CPP32); assay type: biochemical; conditions: continuous assay 60 min, reaction initiated by adding enzyme to substrate-inhibitor mixture; for Ki: read-out: CPP32 Ki
MCH-2 [4] = target: T4, MCH-2 (Homo sapiens, UniProt P55212); experiment: Dissociation constant Ki and irreversible rate constant k3 for irreversible inhibitors (Mch2); assay type: biochemical; conditions: continuous assay 60 min, reaction initiated by adding enzyme to substrate-inhibitor mixture; for Ki: read-out: MCH-2 Ki
mICE [5] = target: T2, mICE; experiment: Fluorescence enzyme assay, determination of IC50 values (ICE); conditions: read-out: mICE IC50; recombinant enzyme, 30 min preincubation, substrate Acetyl-Tyr-Val-Ala-Asp-AMC, room temperature
MCH-5 [6] = target: T1, MCH-5; experiment: Fluorescence enzyme assay, determination of IC50 values (Mch5); conditions: read-out: MCH-5 IC50; 30 min preincubation, substrate Acetyl-Asp-Glu-Val-Asp-AMC, room temperature
MCH-3 = MCH-3 (Homo sapiens, UniProt P55210); experiment: Fluorescence enzyme assay, determination of IC50 values (Mch3); conditions: read-out: MCH-3 IC50; 30 min preincubation, substrate Acetyl-Asp-Glu-Val-Asp-AMC, room temperature
CPP32 [7] = target: T3, CPP32; experiment: Fluorescence enzyme assay, determination of IC50 values (CPP32); conditions: read-out: CPP32 IC50; recombinant enzyme, 30 min preincubation, substrate Acetyl-Asp-Glu-Val-Asp-AMC, room temperature
MCH-2 [8] = target: T4, MCH-2; experiment: Fluorescence enzyme assay, determination of IC50 values (Mch2); conditions: read-out: MCH-2 IC50; 30 min preincubation, substrate Acetyl-Asp-Glu-Val-Asp-AMC, room temperature

Amino acid sequences for entries named in this document (tags omitted). Residues count along the entry.
UniProt Q14790, 217-374 limits assumed: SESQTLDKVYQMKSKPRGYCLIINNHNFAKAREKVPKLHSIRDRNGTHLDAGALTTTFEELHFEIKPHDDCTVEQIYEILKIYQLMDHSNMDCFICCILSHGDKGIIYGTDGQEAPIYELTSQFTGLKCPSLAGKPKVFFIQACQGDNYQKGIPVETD
UniProt Q14790, 385-479 limits assumed: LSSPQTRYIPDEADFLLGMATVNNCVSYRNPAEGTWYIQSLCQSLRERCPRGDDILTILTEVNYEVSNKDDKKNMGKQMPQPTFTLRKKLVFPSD
UniProt P29452, 123-296 limits assumed: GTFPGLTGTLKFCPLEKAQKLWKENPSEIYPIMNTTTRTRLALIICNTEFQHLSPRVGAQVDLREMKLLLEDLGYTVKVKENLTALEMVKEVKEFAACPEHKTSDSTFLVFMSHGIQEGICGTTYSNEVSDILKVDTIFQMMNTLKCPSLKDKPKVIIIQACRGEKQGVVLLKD
UniProt P29452, 315-402 limits assumed: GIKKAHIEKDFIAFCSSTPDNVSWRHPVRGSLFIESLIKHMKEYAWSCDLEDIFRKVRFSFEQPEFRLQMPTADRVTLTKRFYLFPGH
UniProt P42574, 29-175 limits assumed: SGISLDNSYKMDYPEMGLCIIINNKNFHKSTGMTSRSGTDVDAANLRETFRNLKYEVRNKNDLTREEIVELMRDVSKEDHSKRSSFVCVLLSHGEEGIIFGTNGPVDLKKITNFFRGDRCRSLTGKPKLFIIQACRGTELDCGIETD
UniProt P42574, 176-277 limits assumed: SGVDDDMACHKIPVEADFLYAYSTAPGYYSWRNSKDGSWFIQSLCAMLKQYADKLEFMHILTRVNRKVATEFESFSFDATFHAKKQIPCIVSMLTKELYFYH
UniProt P55212, 24-179 limits assumed: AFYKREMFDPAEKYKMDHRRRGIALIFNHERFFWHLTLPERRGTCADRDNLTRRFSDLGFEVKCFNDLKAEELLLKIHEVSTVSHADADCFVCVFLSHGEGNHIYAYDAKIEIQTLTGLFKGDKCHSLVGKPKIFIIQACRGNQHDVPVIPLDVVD
UniProt P55212, 194-293 limits assumed: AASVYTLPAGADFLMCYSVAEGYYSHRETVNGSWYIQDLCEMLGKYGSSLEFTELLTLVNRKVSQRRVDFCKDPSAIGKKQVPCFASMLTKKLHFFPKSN
UniProt P55210, 24-198 limits assumed: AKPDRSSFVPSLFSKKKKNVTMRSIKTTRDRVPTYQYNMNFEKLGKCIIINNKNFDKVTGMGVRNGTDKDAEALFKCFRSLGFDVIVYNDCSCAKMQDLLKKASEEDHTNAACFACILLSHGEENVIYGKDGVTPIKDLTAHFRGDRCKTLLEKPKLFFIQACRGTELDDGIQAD
UniProt P55210, 207-303 limits assumed: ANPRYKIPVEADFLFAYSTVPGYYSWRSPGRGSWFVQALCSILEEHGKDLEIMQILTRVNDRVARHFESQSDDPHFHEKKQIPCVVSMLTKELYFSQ

Q: Which results are given for `C[S+]([O-])CC[C@H](NC(=O)C(=O)Nc1cccc2ccccc12)C(=O)N[C@@H](CC(=O)O)C(=O)COc1c(F)c(F)cc(F)c1F` (single isomer, unassigned) [110A]?
A: MCH-5 k3/Ki (MCH-5 [1]): 169,000 moles^−1 seconds^−1; Ki (MCH-5 [1]): 7.4 nM; mICE k3/Ki (mICE [2]): 835,000 moles^−1 seconds^−1; Ki (mICE [2]): 18 nM; CPP32 k3/Ki (CPP32 [3]): 21,500 moles^−1 seconds^−1; Ki (CPP32 [3]): 472 nM; MCH-2 k3/Ki (MCH-2 [4]): 20,800 moles^−1 seconds^−1; Ki (MCH-2 [4]): 70 nM

Q: How did the IC50 (mICE [5]) turn out when `CC(C)[C@H](NC(=O)C(=O)Nc1ccccc1-c1nnn[nH]1)C(=O)N[C@H](C=O)CC(=O)O` was run?
A: 59 nM

Q: What about the IC50 (MCH-5 [6]) of the same molecule?
A: 322 nM

Q: What about the IC50 (MCH-3) of the same molecule?
A: 1130 nM

Q: And the IC50 (CPP32 [7])?
A: 1380 nM

Q: What about the IC50 (MCH-2 [8]) of the same molecule?
A: 3530 nM

Q: For `C[S+]([O-])CC[C@H](NC(=O)C(=O)Nc1cccc2ccccc12)C(=O)N[C@@H](CC(=O)O)C(=O)COc1c(F)c(F)cc(F)c1F` (single isomer, unassigned) [110B], which “MCH-5 k3/Ki” value (MCH-5 [1]) is on record?
A: 180,000 moles^−1 seconds^−1

Q: What about the Ki (MCH-5 [1]) of the same molecule?
A: 7.8 nM

Q: And the “mICE k3/Ki” value (mICE [2])?
A: 1,010,000 moles^−1 seconds^−1

Q: And the Ki (mICE [2])?
A: 17 nM

Q: And the “CPP32 k3/Ki” value (CPP32 [3])?
A: 81,900 moles^−1 seconds^−1

Q: And the Ki (CPP32 [3])?
A: 104 nM

Q: And the “MCH-2 k3/Ki” value (MCH-2 [4])?
A: 41,700 moles^−1 seconds^−1

Q: What about the Ki (MCH-2 [4]) of the same molecule?
A: 80 nM

Reference: patent US7183260B2, “C-terminal modified oxamyl dipeptides as inhibitors of the ICE/ced-3 family of cysteine proteases” (Idun Pharmaceuticals, Inc., priority 1998, dated 2007)
